Where two headings read alike, the source gives them in different places. At least one compound was matched to its structure with a doubt left. *1 amine or outer side, *2 acyl side, *3 side chain or, on linkers, in order; H or OH if unused. Where a SMILES comes first, the peptide text is derived from it. Bridges are numbered along the chain shown (N, C = ends). [ ]: non-standard residue; d: D form. X2 = O=C(n1cnc(C[C@H](N[*:1])C(=O)[*:2])c1)C(F)(F)F; Hyp = O=C(O)[C@@H]1C[C@@H](O)CN1; AllylGly = C=CC[C@H](N)C(=O)O; NMeNle = CCCC[C@H](NC)C(=O)O; dOrn = NCCC[C@@H](N)C(=O)O; NMeA = CN[C@@H](C)C(=O)O
Molecular target: PD-1-Ig binding to PD-L1-TVMV-His (PD-L1-His) (Homo sapiens (Human), UniProt Q9NZQ7)
Test: PD-1/PD-L1 Homogenous Time-Resolved Fluorescence (HTRF) binding assay (PD-1-Ig/PD-L1-His)
From the text: Methods for Testing the Ability of Macrocyclic Compounds to Compete for the Binding of PD-1 to PD-L1 Using Homogenous Time-Resolved Fluorescence (HTRF) Binding Assays
The ability of the macrocyclic compounds of the present disclosure to bind to PD-L1 was investigated using a PD-1/PD-L1 Homogenous Time-Resolved Fluorescence (HTRF) binding assay.
Homogenous Time-Resolved Fluorescence (HTRF) Assays of Binding of Soluble PD-1 to Soluble PD-L1. Soluble PD-1 and soluble PD-L1 refers to proteins with carboxyl-end truncations that remove the transmembrane-spanning regions and are fused to heterologous sequences, specifically the Fc portion of the human immunoglobulin G sequence (Ig) or the hexahistidine epitope tag (His). All binding studies were performed in an HTRF assay buffer consisting of dPBS supplemented with 0.1% (w/v) bovine serum albumin and 0.05% (v/v) Tween-20. For the PD-1-Ig/PD-L1-His binding assay, inhibitors were pre-incubated with PD-L1-His (10 nM final) for 15 m in 4 μl of assay buffer, followed by addition of PD-1-Ig (20 nM final) in 1 μl of assay buffer and further incubation for 15 m. PD-L1 fusion proteins from either human, cynomologous macaques, mouse, or other species were used. HTRF detection was achieved using europium crypate-labeled anti-Ig monoclonal antibody (1 nM final) and allophycocyanin (APC) labeled anti-His monoclonal antibody (20 nM final). […]

Protein sequences, listed by entry. Tags and fused reporters are not part of them. Chains listed by the source or under a name are the forms on record and can include a tag or linker.
UniProt Q9NZQ7, other isoform, or with tags, fused parts or gaps: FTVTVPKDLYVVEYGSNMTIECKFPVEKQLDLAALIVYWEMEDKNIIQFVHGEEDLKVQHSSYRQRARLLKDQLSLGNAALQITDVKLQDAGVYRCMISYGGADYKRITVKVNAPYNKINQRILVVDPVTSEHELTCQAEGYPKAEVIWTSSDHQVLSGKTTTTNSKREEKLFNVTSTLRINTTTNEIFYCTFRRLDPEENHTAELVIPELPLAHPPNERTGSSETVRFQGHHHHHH

CCCC[C@H]1C(=O)N(C)[C@@H](CCCC)C(=O)N[C@@H](C)C(=O)N[C@H](C(=O)NCC(N)=O)CSCC(=O)N[C@@H](Cc2ccc(O)cc2)C(=O)N(C)[C@@H](C)C(=O)N[C@H]2CCC(=O)NCCC[C@@H](NC(=O)[C@H](Cc3cn(C(=O)C(F)(F)F)cn3)NC(=O)[C@@H]3CCCN3C2=O)C(=O)N2C[C@H](O)C[C@H]2C(=O)N[C@@H](Cc2c[nH]c3ccccc23)C(=O)N[C@@H](CO)C(=O)N[C@@H](Cc2c[nH]c3ccccc23)C(=O)N1C [Example 1404] ({CH2CO}-Y[NMeA]EP[X2][dOrn][Hyp]WSW[NMeNle][NMeNle]ACG-NH2; lactam 3-6; thioether N-14)
IC50 (PD-1-Ig (20 nM)/PD-L1-His (10 nM); range classes; read-out: HTRF IC50): 3 to 9.9 nM

CCCC[C@H]1C(=O)N(C)[C@@H](CCCC)C(=O)N[C@H]2C/C=C/C[C@H](NC(=O)[C@H](Cc3c[nH]c4ccccc34)NC(=O)[C@@H]3CCCN3C(=O)[C@H](CC(C)C)NC(=O)[C@H](Cc3c[nH]cn3)NC(=O)[C@@H]3CCCN3C(=O)[C@H](CC(N)=O)NC(=O)[C@H](C)N(C)C(=O)[C@H](Cc3ccc(O)cc3)NC(=O)CSC[C@@H](C(=O)NCC(N)=O)NC2=O)C(=O)N[C@@H](Cc2c[nH]c3ccccc23)C(=O)N1C [Example 7155] ({CH2CO}-Y[NMeA]NPHLPW[AllylGly]W[NMeNle][NMeNle][AllylGly]CG-NH2; staple (E) 9-13; thioether N-14)
IC50 (read-out: HTRF IC50; PD-1-Ig (20 nM)/PD-L1-His (10 nM); range classes): 10 to 99 nM

From US10143746B2, “Immunomodulators” (BRISTOL-MYERS SQUIBB COMPANY, priority 2016, dated 2018)
